Where a name gives a salt, the structure may show the parent alone. Some results were stated once for a whole list of compounds, not compound by compound.
How the values were obtained:
Assay in all cases: MIC by standard broth microdilution (CLSI), CAMHB
Assay type in all cases: cell-based
[1] = test system: Staphylococcus aureus ATCC49951
Experimental: (§1) The in vitro activity against bacteria including isolates that are resistant to Lefamulin was determined by standard broth microdilution according to the Clinical and Laboratory Standards Institute CLSI document (Performance Standards for Antimicrobial Susceptibility Testing) M100Ed29E (2019) and (Methods for Dilution Antimicrobial Susceptibility Test for Bacteria That Grow Aerobically) M07Ed11 (2018) or other years' versions thereof. The data were obtained using cation-adjusted Mueller Hinton broth medium (CAMHB).

[2] = test system: Staphylococcus aureus cfr (+); settings: Lefamulin resistant, n = 2 isolates
Experimental: as §1

[3] = test system: Streptococcus agalactiae lsa(E); settings: Lefamulin resistant, n = 2 isolates
Experimental: as §1

[4] = test system: Staphylococcus aureus vga(A) (+); settings: Lefamulin resistant
Experimental: as §1

[5] = test system: Streptococcus pneumoniae ATCC49619
Experimental: as §1

In the case of `C[C@@H]1CC[C@@]23CCC(=O)[C@H]2[C@]1(C)[C@H](OC(=O)CS[C@H]1CO[C@H]2[C@@H]1OC[C@@H]2N)C[C@](C)(/C=C/c1cncnc1)[C@@H](O)[C@@H]3C` [Example 2, 12-epi-12-Desvinyl-14-O-{[(3S,3aR,6S,6aS)-3-amino-2,3,3a,5,6,6a-hexahydrofuro[3,2-b]furan-6-yl]sulfanylacetyl}-12-[(E)-2-(pyrimidin-5-yl)-ethenyl]-mutilin dihydrochloride], the “MIC Staphylococcus aureus ATCC49951” value [1] is reported as ≤ 0.1 µg/mL, the “MIC Staphylococcus aureus cfr (+) (n = 2)” value [2] is reported as ≤ 2 µg/mL and the “MIC Streptococcus agalactiae lsa(E) (n = 2)” value [3] is reported as ≤ 2 µg/mL. For the same compound, the “MIC Staphylococcus aureus vga(A) (+)” value [4] was ≤ 2 µg/mL and the “MIC Streptococcus pneumoniae ATCC49619” value [5] was ≤ 0.1 µg/mL.

For `C[C@@H]1CC[C@@]23CCC(=O)[C@H]2[C@]1(C)[C@H](OC(=O)CS[C@H]1CO[C@H]2[C@@H]1OC[C@@H]2N)C[C@](C)(/C=C/c1cccnc1)[C@@H](O)[C@@H]3C` [Example 1, 12-epi-12-Desvinyl-14-O-{[(3S,3aR,6S,6aS)-3-amino-2,3,3a,5,6,6a-hexahydrofuro[3,2-b]furan-6-yl]sulfanylacetyl}-12-[(E)-2-(3-pyridyl)-ethenyl]-mutilin dihydrochloride], the “MIC Staphylococcus aureus ATCC49951” value [1] was ≤ 0.1 µg/mL, the “MIC Staphylococcus aureus cfr (+) (n = 2)” value [2] was ≤ 2 µg/mL and the “MIC Streptococcus agalactiae lsa(E) (n = 2)” value [3] was ≤ 2 µg/mL. The “MIC Staphylococcus aureus vga(A) (+)” value [4] was ≤ 2 µg/mL and the “MIC Streptococcus pneumoniae ATCC49619” value [5] was ≤ 0.1 µg/mL.

For `Cc1nccnc1/C=C/[C@@]1(C)C[C@@H](OC(=O)CS[C@H]2CO[C@H]3[C@@H]2OC[C@@H]3N)[C@]2(C)[C@H](C)CC[C@]3(CCC(=O)[C@H]32)[C@@H](C)[C@@H]1O` [Example 3, 12-epi-12-Desvinyl-14-O-{[(3S,3aR,6S,6aS)-3-amino-2,3,3a,5,6,6a-hexahydrofuro[3,2-b]furan-6-yl]sulfanylacetyl}-12-[(E)-2-(3-methyl-pyrazin-2-yl)-ethenyl]-mutilin dihydrochloride], the “MIC Staphylococcus aureus ATCC49951” value [1] was ≤ 0.1 µg/mL, the “MIC Staphylococcus aureus cfr (+) (n = 2)” value [2] was ≤ 2 µg/mL and the “MIC Streptococcus agalactiae lsa(E) (n = 2)” value [3] was ≤ 2 µg/mL. For the same compound, the “MIC Staphylococcus aureus vga(A) (+)” value [4] was ≤ 2 µg/mL and the “MIC Streptococcus pneumoniae ATCC49619” value [5] was ≤ 0.1 µg/mL.

— patent publication US20240208989A1, “NOVEL 12-EPI-MUTILIN COMPOUNDS AND USES THEREOF” (NABRIVA THERAPEUTICS GMBH, priority 2021, published 2024)
